From the supplement of paper PMC10849652
The list shows a part of the results.

Sequences of proteins named here, by UniProt entry; tags and fusion partners are left off. A change or cut given only in a name is not applied to a line headed by its entry.
UniProt Q9Y4A5, whole entry, looked up: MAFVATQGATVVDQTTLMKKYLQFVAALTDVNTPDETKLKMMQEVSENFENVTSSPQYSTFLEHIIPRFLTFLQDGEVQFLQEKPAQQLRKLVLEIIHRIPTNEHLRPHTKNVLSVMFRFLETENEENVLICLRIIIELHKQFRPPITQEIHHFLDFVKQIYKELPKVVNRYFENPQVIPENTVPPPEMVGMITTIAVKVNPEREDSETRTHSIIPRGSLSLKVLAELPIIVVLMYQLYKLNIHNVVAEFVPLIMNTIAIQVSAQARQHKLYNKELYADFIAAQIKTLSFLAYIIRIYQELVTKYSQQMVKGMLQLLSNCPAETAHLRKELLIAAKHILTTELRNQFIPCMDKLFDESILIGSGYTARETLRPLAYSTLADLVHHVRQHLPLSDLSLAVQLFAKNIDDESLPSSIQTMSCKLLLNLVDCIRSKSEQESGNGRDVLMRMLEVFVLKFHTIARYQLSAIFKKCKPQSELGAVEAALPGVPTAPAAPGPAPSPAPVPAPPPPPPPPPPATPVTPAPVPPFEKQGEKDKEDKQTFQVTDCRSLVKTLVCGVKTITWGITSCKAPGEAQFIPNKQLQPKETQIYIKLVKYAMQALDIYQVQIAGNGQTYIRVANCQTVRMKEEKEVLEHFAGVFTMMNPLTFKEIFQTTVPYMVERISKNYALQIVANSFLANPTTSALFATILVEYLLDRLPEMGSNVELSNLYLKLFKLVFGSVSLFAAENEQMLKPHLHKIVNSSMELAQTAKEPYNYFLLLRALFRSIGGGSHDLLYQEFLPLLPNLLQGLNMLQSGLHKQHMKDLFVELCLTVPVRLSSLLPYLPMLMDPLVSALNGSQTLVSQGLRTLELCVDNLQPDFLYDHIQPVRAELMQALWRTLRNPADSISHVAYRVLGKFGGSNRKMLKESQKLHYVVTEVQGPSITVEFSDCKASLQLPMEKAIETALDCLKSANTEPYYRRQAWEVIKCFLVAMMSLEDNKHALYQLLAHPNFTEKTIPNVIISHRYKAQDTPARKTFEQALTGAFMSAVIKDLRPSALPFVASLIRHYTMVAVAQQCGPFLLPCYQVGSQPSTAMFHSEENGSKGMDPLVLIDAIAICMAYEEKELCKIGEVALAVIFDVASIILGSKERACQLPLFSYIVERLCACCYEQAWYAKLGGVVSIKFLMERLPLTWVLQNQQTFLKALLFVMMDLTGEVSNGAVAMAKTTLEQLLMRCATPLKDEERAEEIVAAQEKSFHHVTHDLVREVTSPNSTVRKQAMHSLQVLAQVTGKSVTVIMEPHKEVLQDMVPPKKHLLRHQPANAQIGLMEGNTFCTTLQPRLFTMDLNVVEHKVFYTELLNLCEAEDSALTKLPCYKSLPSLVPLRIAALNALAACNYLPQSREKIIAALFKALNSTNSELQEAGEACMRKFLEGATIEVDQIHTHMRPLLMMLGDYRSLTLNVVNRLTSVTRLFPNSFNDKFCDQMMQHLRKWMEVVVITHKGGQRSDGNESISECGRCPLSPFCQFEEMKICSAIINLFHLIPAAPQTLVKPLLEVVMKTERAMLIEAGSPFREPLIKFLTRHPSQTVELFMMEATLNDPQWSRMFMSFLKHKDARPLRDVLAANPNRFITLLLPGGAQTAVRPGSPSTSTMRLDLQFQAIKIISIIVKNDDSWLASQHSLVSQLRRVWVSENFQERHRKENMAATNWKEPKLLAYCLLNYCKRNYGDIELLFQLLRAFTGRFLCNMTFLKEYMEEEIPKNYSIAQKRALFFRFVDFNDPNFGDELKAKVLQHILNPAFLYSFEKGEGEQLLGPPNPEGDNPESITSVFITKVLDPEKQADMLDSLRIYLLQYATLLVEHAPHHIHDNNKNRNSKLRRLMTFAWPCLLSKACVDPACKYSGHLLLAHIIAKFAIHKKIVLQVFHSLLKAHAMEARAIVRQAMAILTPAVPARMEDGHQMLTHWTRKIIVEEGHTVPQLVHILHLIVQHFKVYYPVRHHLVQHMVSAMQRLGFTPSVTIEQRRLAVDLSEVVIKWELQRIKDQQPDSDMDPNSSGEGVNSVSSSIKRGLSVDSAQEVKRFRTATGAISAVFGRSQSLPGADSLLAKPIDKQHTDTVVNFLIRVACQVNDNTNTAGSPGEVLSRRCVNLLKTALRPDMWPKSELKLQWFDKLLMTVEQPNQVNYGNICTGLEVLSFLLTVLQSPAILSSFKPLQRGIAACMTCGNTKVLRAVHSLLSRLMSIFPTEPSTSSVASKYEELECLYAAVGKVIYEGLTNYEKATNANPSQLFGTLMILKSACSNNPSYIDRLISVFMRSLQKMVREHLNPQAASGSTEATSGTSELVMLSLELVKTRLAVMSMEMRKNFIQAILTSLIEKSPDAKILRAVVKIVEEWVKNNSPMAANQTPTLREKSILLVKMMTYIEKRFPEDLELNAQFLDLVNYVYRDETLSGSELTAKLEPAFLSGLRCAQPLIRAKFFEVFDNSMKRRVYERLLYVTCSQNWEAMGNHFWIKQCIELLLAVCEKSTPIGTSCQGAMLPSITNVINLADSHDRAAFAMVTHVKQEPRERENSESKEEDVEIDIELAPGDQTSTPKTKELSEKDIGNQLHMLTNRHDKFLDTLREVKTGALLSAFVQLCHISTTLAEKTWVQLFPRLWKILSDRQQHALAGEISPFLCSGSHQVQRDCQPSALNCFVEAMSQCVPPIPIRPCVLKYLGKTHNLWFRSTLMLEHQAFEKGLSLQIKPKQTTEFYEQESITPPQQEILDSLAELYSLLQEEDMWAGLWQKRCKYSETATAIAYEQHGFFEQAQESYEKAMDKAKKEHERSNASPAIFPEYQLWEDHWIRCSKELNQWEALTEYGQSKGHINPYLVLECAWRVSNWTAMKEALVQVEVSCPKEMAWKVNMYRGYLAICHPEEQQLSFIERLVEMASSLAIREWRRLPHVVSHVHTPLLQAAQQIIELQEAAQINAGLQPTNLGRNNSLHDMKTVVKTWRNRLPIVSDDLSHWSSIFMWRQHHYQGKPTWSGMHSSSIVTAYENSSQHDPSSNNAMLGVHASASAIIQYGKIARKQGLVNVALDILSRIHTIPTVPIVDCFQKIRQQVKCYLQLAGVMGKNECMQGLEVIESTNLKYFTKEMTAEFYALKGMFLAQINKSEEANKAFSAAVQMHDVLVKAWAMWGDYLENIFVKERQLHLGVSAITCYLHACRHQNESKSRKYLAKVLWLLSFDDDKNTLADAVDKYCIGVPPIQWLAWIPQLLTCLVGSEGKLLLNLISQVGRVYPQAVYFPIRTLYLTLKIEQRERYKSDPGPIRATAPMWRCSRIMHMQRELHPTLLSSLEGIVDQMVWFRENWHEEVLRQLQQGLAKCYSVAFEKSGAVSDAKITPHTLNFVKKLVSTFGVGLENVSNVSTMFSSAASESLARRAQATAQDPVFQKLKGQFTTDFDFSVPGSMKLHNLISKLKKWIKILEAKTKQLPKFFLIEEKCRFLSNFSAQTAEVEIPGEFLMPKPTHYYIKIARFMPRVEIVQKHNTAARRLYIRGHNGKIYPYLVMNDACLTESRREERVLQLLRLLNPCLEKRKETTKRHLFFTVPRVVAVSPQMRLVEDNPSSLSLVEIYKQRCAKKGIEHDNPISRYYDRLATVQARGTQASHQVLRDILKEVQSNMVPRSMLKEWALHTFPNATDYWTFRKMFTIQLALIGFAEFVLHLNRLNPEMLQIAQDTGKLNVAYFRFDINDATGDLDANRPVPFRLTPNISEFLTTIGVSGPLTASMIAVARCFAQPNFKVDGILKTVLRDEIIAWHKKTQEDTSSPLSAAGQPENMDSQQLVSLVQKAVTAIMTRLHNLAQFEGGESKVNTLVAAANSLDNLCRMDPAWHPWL
UniProt Q7Z392: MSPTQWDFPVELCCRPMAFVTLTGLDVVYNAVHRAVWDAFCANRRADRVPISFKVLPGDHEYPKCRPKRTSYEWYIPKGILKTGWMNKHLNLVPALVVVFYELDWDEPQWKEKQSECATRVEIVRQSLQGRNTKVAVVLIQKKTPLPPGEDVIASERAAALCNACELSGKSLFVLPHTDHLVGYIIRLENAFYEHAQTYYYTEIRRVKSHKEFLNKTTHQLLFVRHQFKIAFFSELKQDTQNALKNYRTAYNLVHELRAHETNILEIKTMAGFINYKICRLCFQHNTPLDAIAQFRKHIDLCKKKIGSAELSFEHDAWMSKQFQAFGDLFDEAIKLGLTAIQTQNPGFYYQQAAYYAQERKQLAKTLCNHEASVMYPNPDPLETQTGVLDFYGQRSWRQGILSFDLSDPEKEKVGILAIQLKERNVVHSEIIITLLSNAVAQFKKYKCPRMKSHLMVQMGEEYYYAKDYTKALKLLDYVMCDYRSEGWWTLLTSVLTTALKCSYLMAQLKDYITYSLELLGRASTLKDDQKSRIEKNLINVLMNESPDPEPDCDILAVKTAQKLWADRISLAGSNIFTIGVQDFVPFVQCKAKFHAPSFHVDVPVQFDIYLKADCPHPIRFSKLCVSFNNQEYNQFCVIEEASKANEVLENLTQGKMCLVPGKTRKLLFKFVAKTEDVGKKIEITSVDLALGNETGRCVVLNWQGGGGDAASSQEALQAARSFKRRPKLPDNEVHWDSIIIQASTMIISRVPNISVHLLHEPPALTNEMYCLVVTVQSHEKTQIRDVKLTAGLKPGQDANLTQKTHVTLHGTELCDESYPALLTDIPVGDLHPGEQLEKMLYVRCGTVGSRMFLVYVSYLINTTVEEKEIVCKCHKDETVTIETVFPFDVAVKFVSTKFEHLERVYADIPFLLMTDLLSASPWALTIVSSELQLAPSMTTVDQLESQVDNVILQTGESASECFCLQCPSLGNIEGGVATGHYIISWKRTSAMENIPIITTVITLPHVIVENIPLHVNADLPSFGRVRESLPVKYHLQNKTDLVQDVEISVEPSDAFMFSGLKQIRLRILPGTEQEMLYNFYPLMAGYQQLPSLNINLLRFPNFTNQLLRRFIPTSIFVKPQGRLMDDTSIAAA
UniProt Q9Y296, whole entry, looked up: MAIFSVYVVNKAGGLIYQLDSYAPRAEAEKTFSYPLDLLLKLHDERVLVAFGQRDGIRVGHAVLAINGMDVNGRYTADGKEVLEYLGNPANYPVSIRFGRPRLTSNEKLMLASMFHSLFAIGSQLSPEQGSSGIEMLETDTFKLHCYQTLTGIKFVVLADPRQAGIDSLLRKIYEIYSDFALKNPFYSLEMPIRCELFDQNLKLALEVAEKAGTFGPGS
UniProt Q9UJK0: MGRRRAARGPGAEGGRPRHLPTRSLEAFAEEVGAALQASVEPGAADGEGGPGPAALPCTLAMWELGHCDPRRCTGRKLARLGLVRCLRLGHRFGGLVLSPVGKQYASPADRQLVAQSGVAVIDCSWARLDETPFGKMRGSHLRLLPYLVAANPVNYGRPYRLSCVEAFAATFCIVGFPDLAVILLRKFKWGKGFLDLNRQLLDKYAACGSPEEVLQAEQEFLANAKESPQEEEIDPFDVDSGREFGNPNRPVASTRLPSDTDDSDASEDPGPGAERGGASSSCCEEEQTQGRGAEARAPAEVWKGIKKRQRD
UniProt Q15631: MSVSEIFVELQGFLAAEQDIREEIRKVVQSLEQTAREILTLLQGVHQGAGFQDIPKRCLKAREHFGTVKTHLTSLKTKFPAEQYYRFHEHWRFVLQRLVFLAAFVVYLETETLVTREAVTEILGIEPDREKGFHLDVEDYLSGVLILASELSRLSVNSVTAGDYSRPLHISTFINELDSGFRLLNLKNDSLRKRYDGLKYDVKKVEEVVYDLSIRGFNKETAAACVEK
UniProt Q2NL82: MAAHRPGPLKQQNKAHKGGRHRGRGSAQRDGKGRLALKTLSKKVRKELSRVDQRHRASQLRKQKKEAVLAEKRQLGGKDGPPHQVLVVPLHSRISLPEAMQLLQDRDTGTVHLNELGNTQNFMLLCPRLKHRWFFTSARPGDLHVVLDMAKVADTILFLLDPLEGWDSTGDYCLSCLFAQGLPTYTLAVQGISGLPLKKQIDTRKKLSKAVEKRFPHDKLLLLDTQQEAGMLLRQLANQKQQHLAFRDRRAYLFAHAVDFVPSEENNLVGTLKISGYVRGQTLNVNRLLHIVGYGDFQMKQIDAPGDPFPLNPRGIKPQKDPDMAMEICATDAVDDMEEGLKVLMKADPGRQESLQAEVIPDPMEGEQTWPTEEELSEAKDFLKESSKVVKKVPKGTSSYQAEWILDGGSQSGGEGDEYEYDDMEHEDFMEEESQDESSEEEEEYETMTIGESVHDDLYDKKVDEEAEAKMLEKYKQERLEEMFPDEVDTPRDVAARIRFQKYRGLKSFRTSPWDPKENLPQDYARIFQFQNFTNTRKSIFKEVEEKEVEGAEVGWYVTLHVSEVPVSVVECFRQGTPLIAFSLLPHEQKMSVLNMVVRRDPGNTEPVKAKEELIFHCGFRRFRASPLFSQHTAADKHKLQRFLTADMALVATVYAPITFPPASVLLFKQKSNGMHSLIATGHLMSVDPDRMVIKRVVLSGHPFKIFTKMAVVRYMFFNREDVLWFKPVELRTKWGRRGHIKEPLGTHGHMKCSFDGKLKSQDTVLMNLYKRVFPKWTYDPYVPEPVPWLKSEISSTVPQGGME

What was measured:
Assay in all cases: log2 fold change, soluble protein after heating vs DMSO (PISA); higher = thermal stabilisation; K562 lysate, 10 uM; active = over 0.2 and 3.5 SD of the protein, either way, in both replicates (recomputed)
lapatinib = compound: CS(=O)(=O)CCNCc1ccc(-c2ccc3ncnc(Nc4ccc(OCc5cccc(F)c5)c(Cl)c4)c3c2)o1 [lapatinib]
Outline: (§1)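 Thermal stability, expressed as log-two fold change relative to solvent controls, is given from duplicates. Crude K562 extract in PBS pH 7.4 with 1 mM MgCl2, at 1 mg/mL protein, was treated with 10 μM compound for 30 min and heated in aliquots for 3 min across 48°C-58°C. After pooling, adjustment to 0.5% NP-40 at 4°C and centrifugation at 21,000xg for 90 min, supernatant protein was measured by TMTpro 16plex LC-MS/MS with channel sums equalised.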

pictilisib = compound: CS(=O)(=O)N1CCN(Cc2cc3nc(-c4cccc5[nH]ncc45)nc(N4CCOCC4)c3s2)CC1 [pictilisib]
Outline: as §1

crizotinib = compound: C[C@@H](Oc1cc(-c2cnn(C3CCNCC3)c2)cnc1N)c1c(Cl)ccc(F)c1Cl [crizotinib]
Outline: as §1

[1] = compound: C[C@H](C1=CC=C(C=C1)C(=O)NC2=C3C=CNC3=NC=C2)N
Outline: as §1

duvelisib = compound: C[C@H](Nc1ncnc2nc[nH]c12)c1cc2cccc(Cl)c2c(=O)n1-c1ccccc1 [duvelisib]
Outline: as §1

gandotinib = compound: Cc1cc(Nc2cc(CN3CCOCC3)c3nc(C)c(Cc4ccc(Cl)cc4F)n3n2)n[nH]1 [gandotinib]
Outline: as §1

tozasertib = compound: Cc1cc(Nc2cc(N3CCN(C)CC3)nc(Sc3ccc(NC(=O)C4CC4)cc3)n2)n[nH]1 [tozasertib]
Outline: as §1

doramapimod = compound: Cc1ccc(-n2nc(C(C)(C)C)cc2NC(=O)Nc2ccc(OCCN3CCOCC3)c3ccccc23)cc1 [doramapimod]
Outline: as §1

bafetinib = compound: Cc1ccc(NC(=O)c2ccc(CN3CC[C@H](N(C)C)C3)c(C(F)(F)F)c2)cc1Nc1nccc(-c2cncnc2)n1 [bafetinib]
Outline: as §1

[2] = compound: Cc1cccc(CC(=O)N2CCc3c2ccc(-c2cn(C)c4ncnc(N)c24)c3F)n1
Outline: as §1

Measured: log2 fold change

TRUB1 (UniProt Q8WWH5)
inactive: lapatinib -0.117 | pictilisib -0.015 | crizotinib -0.029 | [1] -0.089 | duvelisib 0.018 | gandotinib 0.043 | tozasertib 0.005 | doramapimod 0.049 | bafetinib -0.046 | [2] 0.039

TRNT1 (UniProt Q96Q11)
inactive: lapatinib 0.01 | pictilisib -0.021 | crizotinib -0.036 | [1] 0.043 | duvelisib 0.011 | gandotinib -0.075 | tozasertib 0.025 | doramapimod 0.032 | bafetinib 0.016 | [2] -0.03

TRIP10 (UniProt Q15642)
inactive: lapatinib -0.004 | pictilisib 0.042 | crizotinib -0.083 | [1] -0.069 | duvelisib 0.005 | gandotinib 0.098 | tozasertib 0.003 | doramapimod 0.054 | bafetinib 0.023 | [2] 0.179

TRMT61A (UniProt Q96FX7)
inactive: lapatinib 0.071 | pictilisib 0.002 | crizotinib 0.048 | [1] 0.038 | duvelisib -0.053 | gandotinib 0.003 | tozasertib -0.049 | doramapimod -0.052 | bafetinib 0.133 | [2] -0.106

TTF2 (UniProt Q9UNY4)
inactive: lapatinib 0.028 | pictilisib -0.048 | crizotinib -0.104 | [1] -0.052 | duvelisib 0 | gandotinib 0 | tozasertib 0.019 | doramapimod 0.053 | bafetinib -0.02 | [2] 0.102

TRRAP (UniProt Q9Y4A5)
inactive: lapatinib -0.034 | pictilisib -0.057 | crizotinib -0.035 | [1] -0.023 | duvelisib -0.011 | gandotinib -0.027 | tozasertib 0.018 | doramapimod 0.036 | bafetinib -0.056 | [2] 0.018

TRAPPC11 (UniProt Q7Z392)
inactive: lapatinib -0.025 | pictilisib 0.009 | crizotinib -0.019 | [1] -0.059 | duvelisib -0.029 | gandotinib 0.017 | tozasertib -0.017 | doramapimod 0.033 | bafetinib -0.042 | [2] 0.036

TTC5 (UniProt Q8N0Z6)
inactive: lapatinib 0.039 | pictilisib -0.021 | crizotinib -0.053 | [1] -0.064 | duvelisib 0.032 | gandotinib -0.048 | tozasertib 0.076 | doramapimod 0.007 | bafetinib -0.052 | [2] 0.04

TRAPPC4 (UniProt Q9Y296)
inactive: lapatinib 0.009 | pictilisib -0.042 | crizotinib -0.009 | [1] 0.047 | duvelisib -0.008 | gandotinib -0.173 | tozasertib 0.044 | doramapimod 0.023 | bafetinib 0.042 | [2] -0.131

TSC2 isoform 4 (UniProt P49815)
inactive: lapatinib -0.011 | pictilisib 0.025 | crizotinib -0.054 | [1] -0.058 | duvelisib 0.026 | gandotinib -0.035 | tozasertib 0.049 | doramapimod -0.061 | bafetinib -0.008 | [2] 0.089

TSEN34 (UniProt Q9BSV6)
inactive: lapatinib -0.029 | pictilisib -0.008 | crizotinib -0.022 | [1] 0.003 | duvelisib -0.029 | gandotinib -0.058 | tozasertib 0.038 | doramapimod 0.009 | bafetinib -0.049 | [2] 0.026

TRPC4AP (UniProt Q8TEL6)
inactive: lapatinib -0.005 | pictilisib 0.03 | crizotinib -0.037 | [1] -0.007 | duvelisib 0.065 | gandotinib 0.032 | tozasertib -0.003 | doramapimod 0.033 | bafetinib -0.069 | [2] 0.017

TSR3 (UniProt Q9UJK0)
inactive: lapatinib 0.007 | pictilisib 0.015 | crizotinib -0.068 | [1] -0.011 | duvelisib 0.045 | gandotinib 0.058 | tozasertib -0.013 | doramapimod 0.011 | bafetinib -0.067 | [2] 0.003

Reprinted from the results shown (2 entries):
TRAPPC4 (UniProt Q9Y296)
inactive: lapatinib 0.009 | pictilisib -0.042 | crizotinib -0.009 | [1] 0.047 | duvelisib -0.008 | gandotinib -0.173 | tozasertib 0.044 | doramapimod 0.023 | bafetinib 0.042 | [2] -0.131

TSC2 isoform 4 (UniProt P49815)
inactive: lapatinib -0.011 | pictilisib 0.025 | crizotinib -0.054 | [1] -0.058 | duvelisib 0.026 | gandotinib -0.035 | tozasertib 0.049 | doramapimod -0.061 | bafetinib -0.008 | [2] 0.089

Later entries.

TRMT12 (UniProt Q53H54)
inactive: lapatinib 0.064 | pictilisib -0.02 | crizotinib -0.03 | [1] -0.289 | duvelisib 0.055 | gandotinib -0.054 | tozasertib -0.021 | doramapimod 0.059 | bafetinib -0.021 | [2] 0.14

TRAF4 (UniProt Q9BUZ4)
inactive: lapatinib -0.142 | pictilisib -0.016 | crizotinib -0.086 | [1] 0.028 | duvelisib -0.057 | gandotinib -0.274 | tozasertib -0.164 | doramapimod -0.016 | bafetinib -0.229 | [2] -0.134

TRIM5 (UniProt Q9C035)
inactive: lapatinib -0.018 | pictilisib 0.005 | crizotinib -0.037 | [1] -0.028 | duvelisib 0.004 | gandotinib -0.055 | tozasertib 0.155 | doramapimod 0.008 | bafetinib -0.013 | [2] 0.104

TRMT5 (UniProt Q32P41)
inactive: lapatinib -0.003 | pictilisib -0.043 | crizotinib -0.079 | [1] -0.002 | duvelisib 0.003 | gandotinib -0.038 | tozasertib 0.018 | doramapimod 0.041 | bafetinib 0.01 | [2] 0.042

TRIM32 (UniProt Q13049)
inactive: lapatinib -0.057 | pictilisib -0.04 | crizotinib 0.005 | [1] 0 | duvelisib 0.042 | gandotinib -0.046 | tozasertib 0.021 | doramapimod -0.084 | bafetinib -0.035 | [2] 0.104

TRIT1 (UniProt Q9H3H1)
inactive: lapatinib -0.053 | pictilisib 0.007 | crizotinib -0.009 | [1] -0.009 | duvelisib 0.017 | gandotinib -0.176 | tozasertib -0.003 | doramapimod 0.025 | bafetinib 0.091 | [2] -0.005

TSN (UniProt Q15631)
inactive: lapatinib -0.033 | pictilisib 0.001 | crizotinib 0.018 | [1] -0.113 | duvelisib -0.018 | gandotinib 0.085 | tozasertib 0.002 | doramapimod -0.032 | bafetinib 0.022 | [2] 0.006

TSC22D4 (UniProt Q9Y3Q8)
inactive: lapatinib -0.008 | pictilisib -0.03 | crizotinib 0.006 | [1] 0.012 | duvelisib 0.026 | gandotinib 0.013 | tozasertib -0.015 | doramapimod -0.011 | bafetinib -0.038 | [2] 0

TSR1 (UniProt Q2NL82)
inactive: lapatinib -0.009 | pictilisib -0.004 | crizotinib -0.032 | [1] 0.067 | duvelisib 0.015 | gandotinib -0.059 | tozasertib 0.003 | doramapimod -0.001 | bafetinib -0.046 | [2] -0.074

TTC4 (UniProt O95801)
inactive: lapatinib 0.006 | pictilisib 0.025 | crizotinib -0.073 | [1] -0.059 | duvelisib -0.001 | gandotinib 0.035 | tozasertib 0.009 | doramapimod 0.014 | bafetinib -0.001 | [2] 0.026

TST (UniProt Q16762)
inactive: lapatinib 0.06 | pictilisib -0.003 | crizotinib -0.105 | [1] 0.024 | duvelisib 0.002 | gandotinib 0.055 | tozasertib 0.07 | doramapimod 0.018 | bafetinib 0.05 | [2] -0.057

TTLL12 (UniProt Q14166)
inactive: lapatinib -0.002 | pictilisib -0.02 | crizotinib -0.039 | [1] 0.014 | duvelisib 0.015 | gandotinib -0.091 | tozasertib 0.023 | doramapimod 0.016 | bafetinib -0.004 | [2] 0.014

TTC33 (UniProt Q6PID6)
inactive: lapatinib 0.028 | pictilisib -0.067 | crizotinib -0.021 | [1] 0.065 | duvelisib -0.005 | gandotinib -0.13 | tozasertib 0.024 | doramapimod 0.028 | bafetinib -0.029 | [2] 0.011

TSPAN14 (UniProt Q8NG11)
inactive: lapatinib -0.001 | pictilisib -0.059 | crizotinib -0.08 | [1] -0.087 | duvelisib -0.022 | gandotinib 0.112 | tozasertib 0.042 | doramapimod 0.076 | bafetinib -0.063 | [2] 0.063

TSPAN13 (UniProt O95857)
inactive: lapatinib 0.017 | pictilisib 0.015 | crizotinib 0.011 | duvelisib -0.241 | gandotinib 0.32 | tozasertib -0.207 | doramapimod 0.119 | bafetinib 0.038 | [2] 0.055
active: [1] -0.387

TRAPPC12 (UniProt Q8WVT3)
inactive: lapatinib 0.02 | pictilisib -0.017 | crizotinib -0.033 | [1] -0.017 | duvelisib 0.012 | gandotinib -0.042 | tozasertib -0.029 | doramapimod -0.036 | bafetinib -0.039 | [2] 0.048

TRIO (UniProt O75962)
inactive: lapatinib -0.169 | pictilisib 0.021 | crizotinib -0.386 | [1] -0.219 | duvelisib -0.022 | gandotinib 0.061 | tozasertib -0.001 | doramapimod 0.157 | bafetinib -0.096 | [2] 0.115
